Experimental findings from PMC9166295 are described below.

No constants are given. Whether binding was seen depends on the method and setting. In cells and extracts the contact can be indirect. Sequences can lack the tags named with a protein.

The assay concerns the target T1, GAPB fused to the N- or C-terminal fragment of luciferase (Arabidopsis) (UniProt P25857).
T1 sequence: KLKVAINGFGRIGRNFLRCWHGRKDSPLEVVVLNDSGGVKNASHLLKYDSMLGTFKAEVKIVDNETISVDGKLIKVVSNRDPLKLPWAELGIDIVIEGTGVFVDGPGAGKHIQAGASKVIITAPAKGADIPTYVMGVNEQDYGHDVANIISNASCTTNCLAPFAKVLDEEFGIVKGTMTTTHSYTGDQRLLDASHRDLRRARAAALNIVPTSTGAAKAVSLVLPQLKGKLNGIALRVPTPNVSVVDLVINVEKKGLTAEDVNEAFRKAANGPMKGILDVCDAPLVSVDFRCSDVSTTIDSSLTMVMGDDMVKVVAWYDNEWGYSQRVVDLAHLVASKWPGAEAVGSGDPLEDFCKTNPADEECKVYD
The assay can be described thus: split reporter; split luciferase complementation in infiltrated N. benthamiana leaves; permutations of fusions to N- and C-terminal fragments of LUC; luminescence analysed after 2 days.

B1: tAPX fused to the N- or C-terminal fragment of luciferase (enzyme, UniProt Q42593 79-426)
chain: AASDAAQLISAKEDIKVLLRTKFCHPILVRLGWHDAGTYNKNIEEWPLRGGANGSLRFEAELKHAANAGLLNALKLIQPLKDKYPNISYADLFQLASATAIEEAGGPDIPMKYGRVDVVAPEQCPEEGRLPDAGPPSPADHLRDVFYRMGLDDKEIVALSGAHTLGRARPDRSGWGKPETKYTKTGPGEAGGQSWTVKWLKFDNSYFKDIKEKRDDDLLVLPTDAALFEDPSFKNYAEKYAEDVAAFFKDYAEAHAKLSNLGAKFDPPEGIVIENVPEKFVAAKYSTGKKELSDSMKKKIRAEYEAIGGSPDKPLPTNYFLNIIIAIGVLVLLSTLFGGNNNSDFSGF
B1: the binding entry is “no binding”.
